Measurements as given in the supplement of paper PMC12819154, “High-throughput peptide-centric local stability assay extends protein–ligand identification to membrane proteins, tissues and bacteria” (Nature Structural & Molecular Biology, 2025).
The other results are listed elsewhere or left out. Most entries show no effect beyond the scatter of the controls.

Amino acid sequences for entries named in this document (tags omitted). A change or cut given only in a name is not applied to a line headed by its entry.
UniProt Q9Y4E8: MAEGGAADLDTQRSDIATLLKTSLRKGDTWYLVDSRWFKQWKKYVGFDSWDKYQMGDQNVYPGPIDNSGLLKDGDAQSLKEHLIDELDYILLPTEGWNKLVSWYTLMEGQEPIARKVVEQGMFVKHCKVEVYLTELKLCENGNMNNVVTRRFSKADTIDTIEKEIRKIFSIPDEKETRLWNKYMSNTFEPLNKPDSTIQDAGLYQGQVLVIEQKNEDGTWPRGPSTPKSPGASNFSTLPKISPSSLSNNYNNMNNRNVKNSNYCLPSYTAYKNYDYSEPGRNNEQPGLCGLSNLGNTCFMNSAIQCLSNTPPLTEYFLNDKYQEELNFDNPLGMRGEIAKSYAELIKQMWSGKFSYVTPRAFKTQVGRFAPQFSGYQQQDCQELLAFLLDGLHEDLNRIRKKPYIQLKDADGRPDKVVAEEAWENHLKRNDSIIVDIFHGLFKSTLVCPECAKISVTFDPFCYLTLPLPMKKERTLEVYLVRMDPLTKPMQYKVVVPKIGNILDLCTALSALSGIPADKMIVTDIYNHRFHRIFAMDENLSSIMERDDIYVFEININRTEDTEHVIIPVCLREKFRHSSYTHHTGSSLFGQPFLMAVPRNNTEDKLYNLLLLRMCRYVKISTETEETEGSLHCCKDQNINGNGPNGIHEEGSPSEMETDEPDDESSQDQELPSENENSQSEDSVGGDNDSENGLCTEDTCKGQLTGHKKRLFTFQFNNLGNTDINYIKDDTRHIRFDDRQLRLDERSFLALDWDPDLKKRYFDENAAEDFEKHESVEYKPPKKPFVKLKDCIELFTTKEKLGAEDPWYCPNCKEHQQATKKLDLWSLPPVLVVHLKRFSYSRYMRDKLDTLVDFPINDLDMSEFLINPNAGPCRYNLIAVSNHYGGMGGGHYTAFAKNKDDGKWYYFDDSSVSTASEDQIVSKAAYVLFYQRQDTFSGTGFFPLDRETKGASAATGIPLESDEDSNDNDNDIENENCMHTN
UniProt Q9Y4H2: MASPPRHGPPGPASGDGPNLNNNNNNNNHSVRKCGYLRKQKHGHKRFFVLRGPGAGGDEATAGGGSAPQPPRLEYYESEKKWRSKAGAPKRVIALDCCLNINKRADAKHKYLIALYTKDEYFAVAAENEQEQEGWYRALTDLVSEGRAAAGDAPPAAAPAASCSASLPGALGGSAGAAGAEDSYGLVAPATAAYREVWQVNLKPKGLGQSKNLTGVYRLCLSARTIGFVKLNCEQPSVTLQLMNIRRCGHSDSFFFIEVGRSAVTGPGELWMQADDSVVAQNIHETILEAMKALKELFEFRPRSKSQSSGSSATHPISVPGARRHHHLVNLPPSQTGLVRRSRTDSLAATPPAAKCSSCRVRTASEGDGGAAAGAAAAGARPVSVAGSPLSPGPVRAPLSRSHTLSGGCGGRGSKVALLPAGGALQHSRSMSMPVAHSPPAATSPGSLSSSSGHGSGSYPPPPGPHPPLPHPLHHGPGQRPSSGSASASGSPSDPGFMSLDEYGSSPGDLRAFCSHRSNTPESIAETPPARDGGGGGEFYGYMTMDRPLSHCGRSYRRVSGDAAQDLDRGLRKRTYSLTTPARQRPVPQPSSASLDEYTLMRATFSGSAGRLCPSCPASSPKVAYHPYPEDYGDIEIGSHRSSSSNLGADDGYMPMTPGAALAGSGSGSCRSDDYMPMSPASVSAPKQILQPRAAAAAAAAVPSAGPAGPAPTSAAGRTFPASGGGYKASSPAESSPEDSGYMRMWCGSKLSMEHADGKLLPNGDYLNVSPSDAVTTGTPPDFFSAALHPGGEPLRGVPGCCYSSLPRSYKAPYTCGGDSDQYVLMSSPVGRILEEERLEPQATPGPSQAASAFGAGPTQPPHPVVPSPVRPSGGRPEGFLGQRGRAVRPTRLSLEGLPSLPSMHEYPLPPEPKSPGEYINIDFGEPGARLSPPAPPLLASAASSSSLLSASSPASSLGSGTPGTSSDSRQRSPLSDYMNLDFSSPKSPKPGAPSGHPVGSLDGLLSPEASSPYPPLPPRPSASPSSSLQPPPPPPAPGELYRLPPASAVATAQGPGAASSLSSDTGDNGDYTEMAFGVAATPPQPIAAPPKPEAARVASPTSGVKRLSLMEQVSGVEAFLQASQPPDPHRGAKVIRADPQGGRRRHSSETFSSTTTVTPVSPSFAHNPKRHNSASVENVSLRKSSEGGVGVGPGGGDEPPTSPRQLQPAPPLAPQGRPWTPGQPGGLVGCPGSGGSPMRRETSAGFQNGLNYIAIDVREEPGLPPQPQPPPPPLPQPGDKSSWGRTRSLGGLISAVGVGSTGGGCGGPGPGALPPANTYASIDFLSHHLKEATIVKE
UniProt Q9Y4I5: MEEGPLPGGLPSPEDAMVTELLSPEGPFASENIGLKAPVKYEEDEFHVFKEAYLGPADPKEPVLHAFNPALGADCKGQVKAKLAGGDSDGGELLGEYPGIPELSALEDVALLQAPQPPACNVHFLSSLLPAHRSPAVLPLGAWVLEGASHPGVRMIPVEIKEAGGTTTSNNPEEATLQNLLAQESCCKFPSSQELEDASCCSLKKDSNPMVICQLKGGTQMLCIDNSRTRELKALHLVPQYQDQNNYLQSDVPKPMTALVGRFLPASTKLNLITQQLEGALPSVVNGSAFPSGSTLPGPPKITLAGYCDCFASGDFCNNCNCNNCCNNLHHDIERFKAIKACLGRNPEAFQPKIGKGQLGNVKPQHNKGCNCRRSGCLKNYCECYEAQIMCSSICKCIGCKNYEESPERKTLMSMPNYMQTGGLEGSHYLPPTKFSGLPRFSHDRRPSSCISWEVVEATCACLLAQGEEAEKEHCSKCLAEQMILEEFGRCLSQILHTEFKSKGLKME
UniProt Q9Y5A9: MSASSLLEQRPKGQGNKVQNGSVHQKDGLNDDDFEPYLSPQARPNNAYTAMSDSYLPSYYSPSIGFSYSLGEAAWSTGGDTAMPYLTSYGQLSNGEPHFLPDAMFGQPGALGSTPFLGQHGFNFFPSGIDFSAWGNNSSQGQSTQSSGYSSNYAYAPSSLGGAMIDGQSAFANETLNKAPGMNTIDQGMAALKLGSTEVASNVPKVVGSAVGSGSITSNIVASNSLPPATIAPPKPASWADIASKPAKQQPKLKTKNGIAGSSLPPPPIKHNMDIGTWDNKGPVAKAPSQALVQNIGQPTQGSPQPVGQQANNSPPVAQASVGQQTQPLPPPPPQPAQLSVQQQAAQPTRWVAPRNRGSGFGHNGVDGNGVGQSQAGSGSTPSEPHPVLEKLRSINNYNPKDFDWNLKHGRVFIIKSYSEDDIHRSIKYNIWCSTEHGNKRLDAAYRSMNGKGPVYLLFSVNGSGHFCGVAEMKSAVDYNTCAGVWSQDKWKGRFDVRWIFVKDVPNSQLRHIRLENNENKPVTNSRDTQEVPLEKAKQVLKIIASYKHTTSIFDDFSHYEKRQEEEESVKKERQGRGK
UniProt Q9Y5J6: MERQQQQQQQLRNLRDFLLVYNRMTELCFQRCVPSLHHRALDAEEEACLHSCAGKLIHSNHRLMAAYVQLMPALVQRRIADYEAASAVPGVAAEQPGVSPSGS
UniProt Q9Y2A7: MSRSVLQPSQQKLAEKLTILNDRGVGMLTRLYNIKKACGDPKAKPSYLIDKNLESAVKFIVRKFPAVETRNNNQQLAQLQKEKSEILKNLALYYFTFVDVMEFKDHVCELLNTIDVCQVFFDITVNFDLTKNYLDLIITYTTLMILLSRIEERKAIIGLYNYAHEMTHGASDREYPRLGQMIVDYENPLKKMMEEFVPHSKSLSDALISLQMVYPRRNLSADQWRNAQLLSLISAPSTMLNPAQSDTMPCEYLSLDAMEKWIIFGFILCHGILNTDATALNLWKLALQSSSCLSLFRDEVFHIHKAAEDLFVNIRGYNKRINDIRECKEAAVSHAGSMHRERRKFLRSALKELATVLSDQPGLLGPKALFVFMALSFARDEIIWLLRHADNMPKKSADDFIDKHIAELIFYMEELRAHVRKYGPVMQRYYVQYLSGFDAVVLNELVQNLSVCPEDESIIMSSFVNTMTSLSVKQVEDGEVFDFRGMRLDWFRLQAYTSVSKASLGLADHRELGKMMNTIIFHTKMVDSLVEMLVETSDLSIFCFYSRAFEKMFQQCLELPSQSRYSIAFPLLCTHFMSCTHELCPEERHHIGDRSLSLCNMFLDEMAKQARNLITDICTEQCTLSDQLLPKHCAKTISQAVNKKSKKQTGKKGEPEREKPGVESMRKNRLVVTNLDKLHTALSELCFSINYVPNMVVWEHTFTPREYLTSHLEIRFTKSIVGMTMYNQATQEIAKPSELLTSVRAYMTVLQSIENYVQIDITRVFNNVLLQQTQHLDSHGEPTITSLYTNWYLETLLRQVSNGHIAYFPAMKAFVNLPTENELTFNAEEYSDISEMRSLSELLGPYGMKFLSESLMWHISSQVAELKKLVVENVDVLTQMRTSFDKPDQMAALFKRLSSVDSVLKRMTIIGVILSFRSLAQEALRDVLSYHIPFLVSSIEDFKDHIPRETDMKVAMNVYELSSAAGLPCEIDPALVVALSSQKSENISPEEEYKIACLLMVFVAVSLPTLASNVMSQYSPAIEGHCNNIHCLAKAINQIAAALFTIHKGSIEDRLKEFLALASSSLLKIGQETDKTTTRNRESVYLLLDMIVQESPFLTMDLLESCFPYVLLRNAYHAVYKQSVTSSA

compound: Cc1nc(Nc2ncc(C(=O)Nc3c(C)cccc3Cl)s2)cc(N2CCN(CCO)CC2)n1 [dasatinib]; experiment: log2 fold change of tryptic peptide abundance, ligand vs vehicle (limited proteolysis) (log2 ratio); higher = more trypsin-susceptible (destabilized); details: ligand concentration: 5 uM; sample: K562 cleared lysate

Target | log2 fold change
USP15 (peptide sequence: TEDTEHVIIPVCLR, peptide start residue: 559) (UniProt Q9Y4E8) | 0.12
TACC3 (peptide sequence: QKEVIEGYR, peptide start residue: 732) (UniProt Q9Y6A5) | -0.221
IRS2 (peptide sequence: DGGGGGEFYGYMTMDRPLSHCGR, peptide start residue: 532) (UniProt Q9Y4H2) | 0.278
TESMIN (peptide sequence: ACLGRNPEAFQPK, peptide start residue: 341) (UniProt Q9Y4I5) | 0.268
MRPS23 (peptide sequence: EVPQDQHLEAPADQSK, peptide start residue: 170) (UniProt Q9Y3D9) | 0.459
CABIN1 (peptide sequence: KISEESGETAK, peptide start residue: 381) (UniProt Q9Y6J0) | 0.66
YTHDF2 (peptide sequence: TKNGIAGSSLPPPPIK, peptide start residue: 255) (UniProt Q9Y5A9) | -0.296
TIMM10B (peptide sequence: LIHSNHR, peptide start residue: 56) (UniProt Q9Y5J6) | -0.179
NCKAP1 (peptide sequence: IGQETDKTTTR, peptide start residue: 1069) (UniProt Q9Y2A7) | 0.386

Part of the list above, with tabs:
Target	log2 fold change
TACC3 (peptide sequence: QKEVIEGYR, peptide start residue: 732) (UniProt Q9Y6A5)	-0.221
IRS2 (peptide sequence: DGGGGGEFYGYMTMDRPLSHCGR, peptide start residue: 532) (UniProt Q9Y4H2)	0.278
